Screening data, single-dose tests

T. brucei: 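Whole-parasite assay of Trypanosoma brucei over 72 hours; the read-out is not stated. Compounds at 30 µM. Direction is inferred from retests: higher values go with stronger inhibition. Values scatter widely below zero; nearly all retest evidence comes from the higher of the two concentrations used. Of about 64,000 compounds tested this way, about 940 (1.5%) reached 50% or more in at least one test.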
Toxoplasma: 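Assay of Toxoplasma gondii numbers, read through their beta-galactosidase reporter with a colour substrate. Tested at 10 µM. The record gives no direction; the compounds picked for IC50 retests had high values, so higher reads as fewer parasites. Of about 67,000 compounds tested this way, about 260 (0.38%) reached 50% or more in at least one test.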

The filed quantity is “Percent Effect” (%). The record does not define 0% and 100%; most values in the screen are far below 50% and negative numbers occur (in some assays of this library far below -100). This is an unselected part of the compounds tested. A dash means the value is not listed here; it may have been measured.

Compound | T. brucei | Toxoplasma
Cn1cccc1CNC(=O)N(CCO)C1CCCc2ccccc21 (configuration not stated) | 27.22% | -2.262%
[H][C@@]12CCN(C(=O)c3ccnnc3)C[C@@]1([H])O[C@H](c1nc(C)c(C)s1)C2 | 40.95% | -2.993%
Cc1ncc(CN2CCC(c3ccnn3C)CC2)n1-c1ccccc1 | -1.036% | -3.495%
CC(C)CNC(=O)c1ccc(NC(=O)NC(C)c2ccccn2)cc1 (configuration not stated) | -10.55% | -0.1092%
Cc1nc(N)cc(C2CN(C(=O)c3cscn3)CCO2)n1 (configuration not stated) | -2.117% | 3.451%
Cc1nc(N2CCCC2)nc2c1CN(C(C)C)CC2.O=C(O)C(F)(F)F | 28.22% | -1.068%
CC(C)N(Cc1cccnc1)C(=O)CSc1ccc(C#N)cc1 | -585.5% | -4.532%
COc1ccc(NC(C)C(=O)N2CCCC2)cn1 (configuration not stated) | -39.66% | -0.5057%
CC(C)C(=O)NCC(=O)N(C)C1CCCN(CCc2ccccc2)C1 (configuration not stated) | 1.246% | -5.078%
[H][C@@]12CCN(C[C@@H]1CC)[C@@H](CNCc1ccc(OC(F)(F)F)cc1)C2 | 31.96% | 17.48%
COc1cccc2c1OCC(Cc1cnc(N)c(C)c1)C2 (configuration not stated) | 6.098% | 1.71%
COCCC1(CO)CCCN(Cc2ccc(C#N)cc2)C1 (configuration not stated) | -103.5% | -2.984%
[H][C@@]12CCN(C[C@@H]1CN1CCOCC1)[C@@H](CNS(=O)(=O)c1ccccc1)C2 | -9.105% | 18.92%
CN(C)Cc1ccnc(C2CCCN2Cc2ccc3ncccc3c2)n1 (configuration not stated) | 16.74% | 5.276%
CCCn1nccc1C(=O)Nc1ncc(C)s1 | 83.34% | -19.19%
CCN(C(=O)CN1CCCC1c1ccc(OC)cc1)c1ccccc1C (configuration not stated) | -5.598% | 2.065%
N#Cc1ccnc(N2CCN(CC(O)c3ccc(F)c(F)c3)CC2)c1 (configuration not stated) | -6.301% | -4.719%
Cc1c(Br)cnn1CCC(=O)N(C)Cc1c(Cl)cnn1C | -54.08% | 7.82%
CNc1cncc(C2CCCN2Cc2ccccn2)n1 (configuration not stated) | 13.23% | 3.011%
CC(C)(C)c1cc(NC(=O)CN2CCC(N3CCNC3=O)CC2)on1 | - | 6.177%
Cc1cc(C)n(C2CN(CC(O)c3cc(F)ccc3F)C2)n1 (configuration not stated) | 7.425% | 3.901%
CCCN(CCC)c1ncc(S(=O)(=O)c2ccc(C)cc2)c(N)n1 | 0.2073% | 5.312%
CC(C)N1CCC(c2ccnc3c(C(=O)N4CCOCC4)ncn23)CC1 | -86.77% | -2.713%
Cc1cc(CN2CC[C@]3(C[C@@H](OCC(=O)N(C)C)CO3)C2)no1.O=C(O)C(F)(F)F | -28.74% | -16.44%
CCOC(=O)Cn1ccc(NC(=O)Cc2ccccc2F)n1 | -14.28% | 8.085%
[H][C@]12CN(c3cnn(C)c3)C(=O)[C@@]1([H])CN(S(=O)(=O)CC)C2 | -37.37% | -6.095%
CCc1nc(C)sc1CN1CC[C@@](O)(C2CCOCC2)[C@H](C)C1 | -19.71% | 10.63%
O=C(Nc1ccc2occc2c1)N1CCCC(O)(CO)CC1 (configuration not stated) | -9.423% | 4.427%
CCN(CC)S(=O)(=O)N1CCc2nc(C3CCNCC3)ncc2C1.Cl | -15.81% | 8.371%
CCN1CCCC(O)(c2nc(C)c(CCOc3ccccc3Cl)s2)CC1 (configuration not stated) | 33.23% | 26.25%
Cn1ccc(CN2CCC(CO)CC2)cc1=O | 3.806% | -0.6187%
COCC1CN(C(=O)Nc2cc(C(F)(F)F)ccc2F)CCO1 (configuration not stated) | -2.286% | -1.658%
CC1(C(=O)N2CCOCC2)CNCCO1.Cl (configuration not stated) | -3.709% | -13.89%
CC(Oc1ccc2c(c1)OCO2)C(=O)Nc1ccon1 (configuration not stated) | - | 9.353%
CCc1cc(=O)[nH]c(-n2nc(C3CC3)cc2NC(=O)C2CC2)n1 | 97.36% | 96.09%
CCOc1ncccc1NC(=O)NC1CCN(S(C)(=O)=O)CC1 | -9.476% | 0.1112%
Cc1ccccc1S(=O)(=O)NC(=O)C1(c2ccccc2)CCC1 | -9.714% | 13.74%
O=C(O)C(F)(F)F.O=C(c1cscn1)N1CCc2ncnc(-c3cccnc3)c2CC1 | -41.18% | 19.63%
CC(=O)N1CCC1c1cc(N2CCNC(=O)C2)nc(C)n1 (configuration not stated) | -20.35% | 1.055%
Cc1cnccc1NCCn1ccnc1C1CCOC1 (configuration not stated) | -1.449% | -3.68%
Cc1nccc(-c2cccc(NCc3nc(C(C)C)no3)c2)n1 | -5.493% | 4.592%
CCc1nc(Cn2cncc(Br)c2=O)no1 | -16.56% | 3.244%
COc1cc(Nc2c(C#N)c(=O)n(C)c(=O)n2C)cc(OC)c1 | -15.02% | 2.377%
O=C1CC(C(=O)NCc2ccccc2Oc2ccccc2F)CCN1 (configuration not stated) | -16.78% | -5.898%
O=C(O)C(F)(F)F.[H][C@@]12OCCN(S(=O)(=O)CC)[C@@]1([H])CC[C@H]2Oc1ncccc1F | 2.079% | -6.992%
CC(=O)NC1CCCN(Cc2ccc(OCc3ccccn3)cc2)C1 (configuration not stated) | 22.27% | -8.1%
Cc1cc(C(=O)N2CCN(c3ncc4c(n3)CCOC4)CC2)sc1C | 10.03% | -4.007%
Cn1nnnc1SCCNC(=O)c1cccc2ccnn12 | - | -7.372%
Cc1ccc(NC(=O)CN[C@H](C(N)=O)C(C)C)cc1F | -75.26% | 6.456%
Cc1ccc(N(C)CC(O)COCc2ccccc2F)c(C)c1 (configuration not stated) | -61.95% | -1.667%
[H][C@@]12COC[C@]1(c1nnc(C3CC3)o1)CN(C(=O)c1ncccn1)C2 | -38.44% | 5.003%
CCOc1ccc(CC(CNC(=O)c2sccc2C)C(N)=O)cc1 (configuration not stated) | -8.143% | 5.906%
COc1cccc(CC(=O)N2CCC(Cc3nnc(SC)n3C)CC2)c1 | - | 7.655%
COCC(=O)Nc1ccnn1-c1ccc(Cl)cc1 | 12.6% | 75.67%
O=C(N[C@@H]1CCNC[C@H]1O)c1ccccc1OC(F)(F)C(F)F | -17.31% | -1.546%
COc1cc(NC2CCCNC2)cc(OC)c1 (configuration not stated) | -124.1% | -8.229%
[H][C@]12C[C@H](NC(=O)c3cc[nH]n3)[C@@]1([H])CN(S(=O)(=O)c1ccc(C)cc1)C2 | -32.08% | 13.25%
Cn1cc(CN2CCCC23CCN(S(C)(=O)=O)CC3)cn1 | 25.33% | -3.588%
Cc1cnc(NS(=O)(=O)c2cccc(C#N)c2)s1 | -30.89% | 0.1079%
Cc1c[nH]c(CN(C)C(C(=O)O)c2c(F)cccc2Cl)n1 (configuration not stated) | -57.49% | 12.46%
O=C(CN1CCCCCC1)NCc1ccc2[nH]c(=O)[nH]c2c1 | - | -18.79%
Cc1cc(C(=O)CN2CCN(c3nccs3)CC2)c(C)n1C1CC1 | -5.269% | 11.3%
CN1CCN(C(=O)c2cnsn2)c2cc(F)ccc21 | -12.65% | 3.806%
CC(=O)N(C)C(c1cccnc1)c1ccc(F)c(F)c1 (configuration not stated) | -95.18% | -1.07%
CCc1nc(C2CCCN(C(=O)C(C)(C)NS(C)(=O)=O)C2)no1 (configuration not stated) | - | 13.97%
CCn1c(C2CCCN(Cc3ccc4ccccc4n3)C2)nn(C)c1=O (configuration not stated) | -10.52% | -0.1739%

5 of the entries, repeated:

COCCC1(CO)CCCN(Cc2ccc(C#N)cc2)C1 (configuration not stated) read T. brucei: -103.5%; Toxoplasma: -2.984%.
CCc1nc(C2CCCN(C(=O)C(C)(C)NS(C)(=O)=O)C2)no1 (configuration not stated) read Toxoplasma: 13.97%.
COCC1CN(C(=O)Nc2cc(C(F)(F)F)ccc2F)CCO1 (configuration not stated) read T. brucei: -2.286%; Toxoplasma: -1.658%.
O=C(N[C@@H]1CCNC[C@H]1O)c1ccccc1OC(F)(F)C(F)F read T. brucei: -17.31%; Toxoplasma: -1.546%.
Cc1ccc(NC(=O)CN[C@H](C(N)=O)C(C)C)cc1F read T. brucei: -75.26%; Toxoplasma: 6.456%.

Source: ChEMBL document CHEMBL3988442, “University of Dundee, Small-Polar-MMV Screening Library” (2021).